These are yes or no findings as the source states them, for the method shown. A result given as binding can be weak or reduced; the word gives no strength.
How the values were obtained:
[1] = target: T1, AP2 β2-appendage domain without linker (residues 714–951) (bovine) (UniProt Q08DS7); experiment: NMR titration; 15N, 2H labeled AP2β2 714–951 (200 μM) with 5%, 10%, 20% AP180 430–500; 1H-15N TROSY CSPs, intensity ratios, CPMG; NMR buffer; both purified
T1 sequence: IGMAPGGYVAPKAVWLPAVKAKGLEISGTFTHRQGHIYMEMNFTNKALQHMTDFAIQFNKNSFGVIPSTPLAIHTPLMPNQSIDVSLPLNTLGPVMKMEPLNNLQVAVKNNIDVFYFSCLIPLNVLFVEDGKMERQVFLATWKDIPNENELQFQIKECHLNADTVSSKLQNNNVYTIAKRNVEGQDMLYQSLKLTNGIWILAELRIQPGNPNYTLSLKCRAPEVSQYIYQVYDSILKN

[2] = target: T1, AP2 β2-appendage domain without linker (residues 714–951) (bovine); experiment: cross-linking; AP180 430–500 and AP2β2 714–951 equimolar (100 μM each) in 50 mM Na-phosphate, 1 mM DSS 15 min at room temperature; Glu-C digest, LC-MS/MS; one sample; both purified
[3] = target: T2, AP2 β2-appendage domain with linker (residues 617–951) (bovine) (UniProt Q08DS7); experiment: NMR titration; competition: 100 μM 15N AP180 399–598 with 10% AP2β2, then unlabeled AP180 470–500 added (450%); HSQC intensities and 15N R1ρ; both purified
T2 sequence: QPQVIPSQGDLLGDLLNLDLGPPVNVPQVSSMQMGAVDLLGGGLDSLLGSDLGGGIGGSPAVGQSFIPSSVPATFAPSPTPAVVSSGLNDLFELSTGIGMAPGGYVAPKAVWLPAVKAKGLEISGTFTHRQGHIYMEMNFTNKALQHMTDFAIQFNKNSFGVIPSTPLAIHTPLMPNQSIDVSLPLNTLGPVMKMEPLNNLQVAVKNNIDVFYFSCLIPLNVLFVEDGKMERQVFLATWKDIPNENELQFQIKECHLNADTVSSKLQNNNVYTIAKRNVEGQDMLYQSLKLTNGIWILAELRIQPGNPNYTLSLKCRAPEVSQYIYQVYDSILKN

[4] = target: AP180 281-500 (rat); experiment: NMR titration; 15N R1rho relaxation rates of 100 μM 15N AP180 segments with increasing concentrations of unlabeled AP2β2 (0%, 5%, 15%, 50%); 600 MHz; NMR buffer pH 6, 25 °C; both purified
[5] = target: AP180 segment 399–598 (rat); experiment: NMR titration; competition: 100 μM 15N AP180 399–598 with 10% AP2β2, then unlabeled AP180 470–500 added (450%); HSQC intensities and 15N R1ρ; both purified
[6] = target: AP180 IDR (residues 281–898 of AP180) (rat); experiment: NMR titration; unlabeled AP2β2 (wild type or mutant) added to 100 μM 15N labeled AP180 (IDR or segments); HSQC intensity ratios, CSPs and 15N R1ρ; NMR buffer 50 mM Na-phosphate pH 6, 150 mM NaCl, 2 mM DTT, 25 °C; both purified
[7] = target: AP180 segment 399–598 (rat); experiment: as above
[8] = target: AP180 segment 540–740 (rat); experiment: as above

AP180 430–500 (extended interaction motif, EIM) (rat) (domain or fragment)
binding [1]: binds | binding [2]: binds

AP180 470–500 (rat) (domain or fragment)
binding [3]: binds

B1: AP2 beta2-appendage domain with linker, AP2β2 617-951 (domain or fragment, UniProt Q08DS7 617-951)
chain: T2 sequence
binding [4]: binds

B2: AP2 β2-appendage domain with linker (residues 617–951) (domain or fragment, UniProt Q08DS7 617-951)
chain: T2 sequence
binding [5]: binds | binding [6]: binds | binding [7]: binds | binding [8]: binds weakly

Source: article PMC11246429 (2024)
